{"source": "PubChem BioAssay AID1159578 – Peter MacCallum Cancer Centre, 2015", "purpose": "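Knock-downs that alter how fast lymphatic endothelial cells migrate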 (primary screen)", "cell system": "human lymphatic endothelial cells", "reagent": "siRNA pool against human genes, 40 nM", "duration": "48 h after transfection", "measured": "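Cells stained with dye and imaged after a scratch; covered wound area and nuclei counted, duplicates averaged, migration set against mock wells and turned into a robust z-score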", "reading the numbers": "migration robust z-score: higher = faster migration into the scratch; nuclei per well: higher = more cells in the well", "active means": "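Migration changed when robust z exceeds 2 or falls below -2 and mean nuclei number is at least 3300; otherwise not called changed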", "calls": "active = migration changed; inactive = no migration change, or too few cells", "note": "The deposit covers about 18,000 reagents; shown is an unselected part. Of all reagents, about 1,030 (5.7%) were called active. 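Inactive calls also include pools with fewer than 3300 nuclei, whose migration was not assessed.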 Raw values vary from plate to plate and are shown uncorrected. Entries without a mark were called inactive. Not all columns of the deposit are shown. No sequences are given here."}
{"gene":"ERAS","migration robust z-score":-0.47,"nuclei per well, duplicate mean":6102}
{"gene":"TRPC5","migration robust z-score":0.21,"nuclei per well, duplicate mean":5492}
{"gene":"ZNF185","migration robust z-score":0.54,"nuclei per well, duplicate mean":5204}
{"gene":"HOOK2","migration robust z-score":1.34,"nuclei per well, duplicate mean":3787}
{"gene":"BRD8","migration robust z-score":-0.64,"nuclei per well, duplicate mean":6046}
{"gene":"KRT14","migration robust z-score":-0.46,"nuclei per well, duplicate mean":5958}
{"gene":"VCAN","migration robust z-score":-1.23,"nuclei per well, duplicate mean":5740}
{"gene":"KRTAP5-4","migration robust z-score":-0.87,"nuclei per well, duplicate mean":5582}
{"gene":"KRTAP6-2","migration robust z-score":-0.86,"nuclei per well, duplicate mean":4603}
{"gene":"WHR1","migration robust z-score":-0.32,"nuclei per well, duplicate mean":5104}
{"gene":"SLC13A4","migration robust z-score":-1.19,"nuclei per well, duplicate mean":3536}
{"gene":"NDUFAF1","migration robust z-score":-0.98,"nuclei per well, duplicate mean":4852}
{"gene":"PHF1","migration robust z-score":1.14,"nuclei per well, duplicate mean":5382}
{"gene":"MCF2","migration robust z-score":1.38,"nuclei per well, duplicate mean":5840}
{"gene":"TGIF2LX","migration robust z-score":0.72,"nuclei per well, duplicate mean":5462}
{"gene":"NANP","migration robust z-score":0.2,"nuclei per well, duplicate mean":5538}
{"gene":"PLCD1","migration robust z-score":0.44,"nuclei per well, duplicate mean":4868}

Continued; the last 3 above are carried over.
{"gene":"TGIF2LX","migration robust z-score":0.72,"nuclei per well, duplicate mean":5462}
{"gene":"NANP","migration robust z-score":0.2,"nuclei per well, duplicate mean":5538}
{"gene":"PLCD1","migration robust z-score":0.44,"nuclei per well, duplicate mean":4868}
{"gene":"KLHL32","migration robust z-score":-1.24,"nuclei per well, duplicate mean":6112}
{"gene":"UTP20","migration robust z-score":-0.64,"nuclei per well, duplicate mean":5975}
{"gene":"RGR","migration robust z-score":-5.94,"nuclei per well, duplicate mean":3230}
{"gene":"EPM2AIP1","migration robust z-score":-0.48,"nuclei per well, duplicate mean":4848}
{"gene":"BBX","migration robust z-score":-0.54,"nuclei per well, duplicate mean":4920}
{"gene":"DNAJC7","migration robust z-score":-0.7,"nuclei per well, duplicate mean":5040}
{"gene":"SPIN1","migration robust z-score":-0.27,"nuclei per well, duplicate mean":6692}
{"gene":"PHLDB1","migration robust z-score":0.32,"nuclei per well, duplicate mean":5800}
{"gene":"ACTL7B","migration robust z-score":0.16,"nuclei per well, duplicate mean":4391}
{"gene":"XKRX","migration robust z-score":0.88,"nuclei per well, duplicate mean":5842}
